Results on two molecules are retold here after paper doi:10.1101/503540 (bioRxiv, 2018).

These are yes or no findings as the source states them, for the method shown. Some binding calls cover weakened binding; strength is not graded here. Sequences can lack the tags named with a protein.

The target of assay [1] is T1, eIF2Bδ, S. pombe (subunit of eIF2B) (Schizosaccharomyces pombe) (UniProt Q09924).
T1 sequence: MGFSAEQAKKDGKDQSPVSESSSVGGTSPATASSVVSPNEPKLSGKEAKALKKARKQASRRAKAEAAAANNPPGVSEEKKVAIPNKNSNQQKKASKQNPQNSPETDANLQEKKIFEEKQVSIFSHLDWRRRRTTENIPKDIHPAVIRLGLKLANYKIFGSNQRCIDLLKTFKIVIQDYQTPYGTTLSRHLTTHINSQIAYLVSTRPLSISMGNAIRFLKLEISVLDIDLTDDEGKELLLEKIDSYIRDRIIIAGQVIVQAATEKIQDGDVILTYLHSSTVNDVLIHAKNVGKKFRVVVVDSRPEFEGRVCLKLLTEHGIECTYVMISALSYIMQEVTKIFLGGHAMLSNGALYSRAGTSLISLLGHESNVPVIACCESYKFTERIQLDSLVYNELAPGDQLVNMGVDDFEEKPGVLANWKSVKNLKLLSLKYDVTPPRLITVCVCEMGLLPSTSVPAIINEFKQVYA
As to the kind of experiment: crystal structure.

For assay [2], the target named is T2, eIF2Bα, S. pombe (subunit of eIF2B) (Schizosaccharomyces pombe) (UniProt Q9USP0).
T2 sequence: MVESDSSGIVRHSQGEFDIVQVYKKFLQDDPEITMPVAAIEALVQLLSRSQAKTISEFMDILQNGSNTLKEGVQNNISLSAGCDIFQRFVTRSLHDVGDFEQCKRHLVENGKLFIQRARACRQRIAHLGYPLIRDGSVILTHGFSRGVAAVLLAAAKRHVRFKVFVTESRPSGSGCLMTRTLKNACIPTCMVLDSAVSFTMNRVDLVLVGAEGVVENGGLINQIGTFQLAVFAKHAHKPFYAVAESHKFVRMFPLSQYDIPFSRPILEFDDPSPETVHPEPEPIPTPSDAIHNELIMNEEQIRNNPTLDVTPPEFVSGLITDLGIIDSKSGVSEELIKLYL
As to the kind of experiment: crystal structure.

B1: S. cerevisiae phosphorylated eIF2α (P-eIF2α), wild type (protein, UniProt P20459 1-304)
chain: MSTSHCRFYENKYPEIDDIVMVNVQQIAEMGAYVKLLEYDNIEGMILLSELSRRRIRSIQKLIRVGKNDVAVVLRVDKEKGYIDLSKRRVSSEDIIKCEEKYQKSKTVHSILRYCAEKFQIPLEELYKTIAWPLSRKFGHAYEAFKLSIIDETVWEGIEPPSKDVLDELKNYISKRLTPQAVKIRADVEVSCFSYEGIDAIKDALKSAEDMSTEQMQVKVKLVAAPLYVLTTQALDKQKGIEQLESAIEKITEVITKYGGVCNITMPPKAVTATEDAELQALLESKELDNRSDSEDDEDESDDE
modifications: phosphoserine at 51
Consider B1, for which the binding entry in assay [1] and in assay [2] was “binds” in each case.

B2: S. cerevisiae eIF2α, unphosphorylated, wild type (protein, UniProt P20459 1-304)
chain: B1 chain
B2: the binding entry in assay [1] and in assay [2] was “binds” each time.
